Test results: the supplement of paper PMC10849652
The other results are listed elsewhere or left out.

The chains behind the UniProt entries cited, without tags or fusion partners. Where a name states a change or a piece, a line headed by the entry shows the natural chain unless it says otherwise.
UniProt O95870: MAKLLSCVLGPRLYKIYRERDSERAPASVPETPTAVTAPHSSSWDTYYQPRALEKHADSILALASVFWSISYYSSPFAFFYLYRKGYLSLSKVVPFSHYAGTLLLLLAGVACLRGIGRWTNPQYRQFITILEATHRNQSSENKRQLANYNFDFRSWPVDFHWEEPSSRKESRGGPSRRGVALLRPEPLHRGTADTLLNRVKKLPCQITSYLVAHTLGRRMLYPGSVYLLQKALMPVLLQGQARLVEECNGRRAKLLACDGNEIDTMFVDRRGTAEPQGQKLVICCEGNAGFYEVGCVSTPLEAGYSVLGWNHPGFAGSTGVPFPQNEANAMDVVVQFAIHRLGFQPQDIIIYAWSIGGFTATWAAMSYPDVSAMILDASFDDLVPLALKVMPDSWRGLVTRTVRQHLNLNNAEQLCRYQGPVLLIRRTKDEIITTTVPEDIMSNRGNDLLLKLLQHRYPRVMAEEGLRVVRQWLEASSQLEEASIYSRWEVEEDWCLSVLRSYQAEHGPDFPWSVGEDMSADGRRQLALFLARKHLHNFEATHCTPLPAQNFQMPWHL
UniProt Q8NFV4: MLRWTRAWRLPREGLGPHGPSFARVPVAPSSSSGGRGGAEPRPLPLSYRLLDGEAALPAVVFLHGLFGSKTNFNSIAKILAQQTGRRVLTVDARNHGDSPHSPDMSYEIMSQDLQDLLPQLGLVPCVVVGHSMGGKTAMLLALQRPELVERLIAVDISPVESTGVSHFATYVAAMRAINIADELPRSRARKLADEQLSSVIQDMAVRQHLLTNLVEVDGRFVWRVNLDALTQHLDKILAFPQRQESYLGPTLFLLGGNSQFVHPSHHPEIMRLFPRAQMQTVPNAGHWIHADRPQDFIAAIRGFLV
UniProt P49588, whole entry, looked up: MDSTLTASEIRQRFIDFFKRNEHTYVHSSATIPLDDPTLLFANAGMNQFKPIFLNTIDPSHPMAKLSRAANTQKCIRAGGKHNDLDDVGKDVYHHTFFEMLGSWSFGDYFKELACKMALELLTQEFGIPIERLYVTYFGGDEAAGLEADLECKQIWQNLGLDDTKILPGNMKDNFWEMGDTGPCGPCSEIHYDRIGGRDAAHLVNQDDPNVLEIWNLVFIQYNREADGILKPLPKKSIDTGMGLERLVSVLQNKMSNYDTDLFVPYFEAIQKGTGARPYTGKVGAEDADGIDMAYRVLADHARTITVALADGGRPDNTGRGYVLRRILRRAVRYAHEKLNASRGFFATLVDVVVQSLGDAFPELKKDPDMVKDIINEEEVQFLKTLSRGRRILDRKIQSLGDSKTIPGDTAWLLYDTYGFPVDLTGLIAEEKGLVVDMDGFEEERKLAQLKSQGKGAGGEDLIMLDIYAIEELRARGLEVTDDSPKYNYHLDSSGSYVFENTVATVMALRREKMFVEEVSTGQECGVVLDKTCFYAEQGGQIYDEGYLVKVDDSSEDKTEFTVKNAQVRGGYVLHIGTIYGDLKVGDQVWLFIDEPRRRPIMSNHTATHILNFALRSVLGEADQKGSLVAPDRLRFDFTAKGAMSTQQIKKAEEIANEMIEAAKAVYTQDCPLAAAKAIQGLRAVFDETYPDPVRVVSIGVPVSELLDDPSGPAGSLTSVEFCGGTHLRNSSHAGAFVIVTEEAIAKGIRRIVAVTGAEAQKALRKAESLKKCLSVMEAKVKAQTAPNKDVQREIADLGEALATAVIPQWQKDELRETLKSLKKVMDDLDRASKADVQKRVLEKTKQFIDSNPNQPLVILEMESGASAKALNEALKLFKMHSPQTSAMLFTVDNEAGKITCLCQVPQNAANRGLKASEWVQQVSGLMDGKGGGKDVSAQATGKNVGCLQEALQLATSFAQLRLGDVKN

Legend:
Assay in all cases: log2 fold change, soluble protein after heating vs DMSO (PISA); higher = thermal stabilisation; K562 lysate, 10 uM; active = over 0.2 and 3.5 SD of the protein, either way, in both replicates (recomputed)
lapatinib = compound: CS(=O)(=O)CCNCc1ccc(-c2ccc3ncnc(Nc4ccc(OCc5cccc(F)c5)c(Cl)c4)c3c2)o1 [lapatinib]
In short: (§1)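 Log-two fold change in thermal stability relative to solvent controls is reported from duplicates. For each sample, crude K562 extract from dounce-homogenised pellets in PBS pH 7.4 with 1 mM MgCl2, at 1 mg/mL protein, was treated with 10 μM compound for 30 min. Aliquots heated for 3 min across 48°C-58°C were pooled, brought to 0.5% NP-40 at 4°C and cleared at 21,000xg for 90 min. The supernatant was quantified by TMTpro 16plex LC-MS/MS with channel sums equalised.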

pictilisib = compound: CS(=O)(=O)N1CCN(Cc2cc3nc(-c4cccc5[nH]ncc45)nc(N4CCOCC4)c3s2)CC1 [pictilisib]
In short: as §1

crizotinib = compound: C[C@@H](Oc1cc(-c2cnn(C3CCNCC3)c2)cnc1N)c1c(Cl)ccc(F)c1Cl [crizotinib]
In short: as §1

[1] = compound: C[C@H](C1=CC=C(C=C1)C(=O)NC2=C3C=CNC3=NC=C2)N
In short: as §1

duvelisib = compound: C[C@H](Nc1ncnc2nc[nH]c12)c1cc2cccc(Cl)c2c(=O)n1-c1ccccc1 [duvelisib]
In short: as §1

gandotinib = compound: Cc1cc(Nc2cc(CN3CCOCC3)c3nc(C)c(Cc4ccc(Cl)cc4F)n3n2)n[nH]1 [gandotinib]
In short: as §1

tozasertib = compound: Cc1cc(Nc2cc(N3CCN(C)CC3)nc(Sc3ccc(NC(=O)C4CC4)cc3)n2)n[nH]1 [tozasertib]
In short: as §1

doramapimod = compound: Cc1ccc(-n2nc(C(C)(C)C)cc2NC(=O)Nc2ccc(OCCN3CCOCC3)c3ccccc23)cc1 [doramapimod]
In short: as §1

bafetinib = compound: Cc1ccc(NC(=O)c2ccc(CN3CC[C@H](N(C)C)C3)c(C(F)(F)F)c2)cc1Nc1nccc(-c2cncnc2)n1 [bafetinib]
In short: as §1

[2] = compound: Cc1cccc(CC(=O)N2CCc3c2ccc(-c2cn(C)c4ncnc(N)c24)c3F)n1
In short: as §1

nilotinib = compound: Cc1cn(-c2cc(NC(=O)c3ccc(C)c(Nc4nccc(-c5cccnc5)n4)c3)cc(C(F)(F)F)c2)cn1 [nilotinib]
In short: as §1

[3] = compound: Cc1nc(Nc2n[nH]c3c2CN(C(=O)N[C@H](CN(C)C)c2ccccc2)C3(C)C)c2sccc2n1
In short: as §1

dasatinib = compound: Cc1nc(Nc2ncc(C(=O)Nc3c(C)cccc3Cl)s2)cc(N2CCN(CCO)CC2)n1 [dasatinib]
In short: as §1

[4] = compound: Cc1ncc(-c2ccnc(Nc3ccc(S(C)(=O)=O)cc3)n2)n1C(C)C
In short: as §1

[5] = compound: Cn1cc(-c2ccc3c(c2)CCN3C(=O)Cc2cccc(C(F)(F)F)c2)c2c(N)ncnc21
In short: as §1

quisinostat = compound: Cn1cc(CNCC2CCN(c3ncc(C(=O)NO)cn3)CC2)c2ccccc21 [quisinostat]
In short: as §1

tipifarnib = compound: Cn1cncc1[C@@](N)(c1ccc(Cl)cc1)c1ccc2c(c1)c(-c1cccc(Cl)c1)cc(=O)n2C [tipifarnib]
In short: as §1

[6] = compound: NC(=O)Nc1cc(-c2cccc(F)c2)sc1C(=O)N[C@H]1CCCNC1
In short: as §1

[7] = compound: NC(=O)c1cnc(N[C@@H]2CCCC[C@@H]2N)nc1Nc1cccc(-n2nccn2)c1
In short: as §1

[8] = compound: NC1(c2ccc(-c3nc4ccn5c(=O)[nH]nc5c4cc3-c3ccccc3)cc2)CCC1
In short: as §1

Measured: log2 fold change

ABRAXAS2 (UniProt Q15018)
inactive: lapatinib 0.004 | pictilisib 0.007 | crizotinib 0.066 | [1] 0.079 | duvelisib 0.006 | gandotinib -0.026 | tozasertib -0.007 | doramapimod -0.018 | bafetinib 0.044 | [2] -0.037 | nilotinib -0.009 | [3] -0.009 | dasatinib 0.024 | [4] -0.023 | [5] 0.079 | quisinostat 0.089 | tipifarnib 0.008 | [6] -0.02 | [7] -0.036 | [8] 0.044

ABHD16A (UniProt O95870)
inactive: lapatinib 0.032 | pictilisib 0.028 | crizotinib 0.018 | [1] 0.006 | duvelisib -0.078 | gandotinib 0.081 | tozasertib -0.072 | doramapimod 0.013 | bafetinib 0.018 | [2] -0.021 | nilotinib -0.015 | [3] 0.02 | dasatinib 0.009 | [4] 0.027 | [5] -0.051 | quisinostat 0.143 | tipifarnib -0.012 | [6] -0.014 | [7] -0.003 | [8] -0.054

ABHD11 (UniProt Q8NFV4)
inactive: lapatinib 0.024 | pictilisib 0.033 | crizotinib -0.019 | [1] -0.121 | duvelisib 0.028 | tozasertib 0.081 | doramapimod -0.034 | bafetinib 0.009 | [2] 0.05 | nilotinib -0.001 | [3] -0.021 | dasatinib -0.005 | [4] -0.044 | [5] 0.079 | quisinostat 0.081 | tipifarnib 0.042 | [6] -0.016 | [7] 0.04 | [8] -0.003
active: gandotinib 0.853

AARS (UniProt P49588)
inactive: lapatinib -0.015 | pictilisib 0.011 | crizotinib 0.008 | [1] 0 | duvelisib -0.01 | gandotinib -0.039 | tozasertib -0.007 | doramapimod -0.01 | bafetinib 0.008 | [2] -0.004 | nilotinib -0.026 | [3] -0.001 | dasatinib -0.015 | [4] -0.006 | [5] 0.024 | quisinostat 0.013 | tipifarnib -0.009 | [6] 0.02 | [7] -0.013 | [8] 0.001
